Experimental data as given in publication PMC11976418.
These are yes or no findings as the source states them, for the method shown. Binding seen in cells or lysates may run through a third protein. Some entries that bind do so weakly or less than the wild type. Tags and fused reporters may be left off the sequences shown.

The chains behind the UniProt entries cited, without tags or fusion partners.
UniProt Q13485: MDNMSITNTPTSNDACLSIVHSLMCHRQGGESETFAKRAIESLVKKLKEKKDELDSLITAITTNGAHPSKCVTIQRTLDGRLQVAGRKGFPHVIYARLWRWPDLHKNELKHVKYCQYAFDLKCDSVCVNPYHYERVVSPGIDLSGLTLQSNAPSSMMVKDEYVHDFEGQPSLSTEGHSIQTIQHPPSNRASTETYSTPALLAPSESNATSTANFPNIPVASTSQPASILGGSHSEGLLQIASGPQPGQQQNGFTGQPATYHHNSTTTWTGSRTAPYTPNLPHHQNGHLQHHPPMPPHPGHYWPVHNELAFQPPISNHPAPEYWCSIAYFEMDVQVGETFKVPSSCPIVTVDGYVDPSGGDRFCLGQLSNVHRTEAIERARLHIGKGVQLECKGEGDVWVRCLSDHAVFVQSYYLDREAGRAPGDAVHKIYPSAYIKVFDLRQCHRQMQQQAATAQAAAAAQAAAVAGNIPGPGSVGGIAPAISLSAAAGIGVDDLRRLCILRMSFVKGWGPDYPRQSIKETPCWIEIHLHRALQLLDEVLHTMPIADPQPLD

Target: MYC-tagged SMAD4 (UniProt Q13485)
Experiment: co-IP; FLAG-TINAGL1 and MYC-SMAD4 co-transfected into human primary intestinal fibroblasts; lysates incubated with anti-MYC and anti-FLAG antibodies overnight at 4 °C, Protein A/G beads, Western blot with anti-FLAG and anti-MYC; methods say lysates were prepared after treatment with TINAGL1 recombinant protein

B1: FLAG-tagged TINAGL1 (Tubulointerstitial Nephritis Antigen-Like 1) (protein, UniProt Q9GZM7 22-467)
chain: AQQGRGRRELAPGLHLRGIRDAGGRYCQEQDLCCRGRADDCALPYLGAICYCDLFCNRTVSDCCPDFWDFCLGVPPPFPPIQGCMHGGRIYPVLGTYWDNCNRCTCQENRQWQCDQEPCLVDPDMIKAINQGNYGWQAGNHSAFWGMTLDEGIRYRLGTIRPSSSVMNMHEIYTVLNPGEVLPTAFEASEKWPNLIHEPLDQGNCAGSWAFSTAAVASDRVSIHSLGHMTPVLSPQNLLSCDTHQQQGCRGGRLDGAWWFLRRRGVVSDHCYPFSGRERDEAGPAPPCMMHSRAMGRGKRQATAHCPNSYVNNNDIYQVTPVYRLGSNDKEIMKELMENGPVQALMEVHEDFFLYKGGIYSHTPVSLGRPERYRRHGTHSVKITGWGEETLPDGRTLKYWTAANSWGPAWGERGHFRIVRGVNECDIESFVLGVWGRVGMEDMGHH
With B1 the binding was “binds”.
